The results in this text go back to article PMC12073896.

The chains behind the UniProt entries cited, without tags or fusion partners.
UniProt Q96RR4: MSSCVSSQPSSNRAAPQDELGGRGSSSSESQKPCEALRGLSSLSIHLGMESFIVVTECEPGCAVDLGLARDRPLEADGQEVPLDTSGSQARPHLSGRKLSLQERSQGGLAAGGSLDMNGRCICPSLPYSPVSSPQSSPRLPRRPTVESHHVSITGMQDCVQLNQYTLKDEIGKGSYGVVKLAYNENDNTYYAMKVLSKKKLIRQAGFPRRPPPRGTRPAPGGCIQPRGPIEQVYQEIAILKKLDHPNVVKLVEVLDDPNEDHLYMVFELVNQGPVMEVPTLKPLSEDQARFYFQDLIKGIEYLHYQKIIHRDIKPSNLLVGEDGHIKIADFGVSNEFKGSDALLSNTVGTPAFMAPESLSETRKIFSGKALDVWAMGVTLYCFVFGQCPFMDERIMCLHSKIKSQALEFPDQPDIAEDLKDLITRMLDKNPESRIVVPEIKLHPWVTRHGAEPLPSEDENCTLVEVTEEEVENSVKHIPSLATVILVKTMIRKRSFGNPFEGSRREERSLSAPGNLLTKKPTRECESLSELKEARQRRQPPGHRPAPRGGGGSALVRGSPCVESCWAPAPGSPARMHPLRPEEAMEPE
UniProt Q03135: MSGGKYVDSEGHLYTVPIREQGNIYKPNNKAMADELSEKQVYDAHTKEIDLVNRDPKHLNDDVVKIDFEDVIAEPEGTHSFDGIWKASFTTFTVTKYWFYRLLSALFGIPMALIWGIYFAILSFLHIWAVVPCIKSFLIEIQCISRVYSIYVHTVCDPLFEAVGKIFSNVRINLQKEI

Results are given in words; binding and its absence hold for the method and conditions named. For part of these data: In cells and extracts the contact can be indirect. Some results given as binding are weak or reduced against the parent protein; the word gives no strength.

The target of test [1] is HA-tagged CaMKK2 (calcium–calmodulin-dependent protein kinase kinase 2) (human) (UniProt Q96RR4). The test is described as follows: co-IP; HK-2 cells co-transfected with Flag-tagged CAV1 and HA-tagged CaMKK2 for 48 h; lysates incubated overnight at 4°C with Anti-Flag Affinity Gel or HA antibodies; Western blot with anti-Flag and anti-HA.
Test [2] has as its target Flag-tagged CAV1 (Caveolin-1) (human) (UniProt Q03135). The description is as above.
Test [3] deals with GST-CAMKK2 fusion protein (UniProt Q96RR4). The test is described as follows: pull-down; GST-CAMKK2 on Sepharose 4B beads; 20 μL SUMO-CAV1-His protein solution added; 4–8 h at 4°C on a shaker; GST-coupled beads as negative control; Western blot; both purified. (In western blotting, separated proteins are transferred to a membrane and probed.)

Consider “Flag-tagged CAV1 (Caveolin-1) (from UniProt Q03135 1-178)”, for which the binding entry in test [1] is reported as “binds”.

Consider “HA-tagged CaMKK2 (calcium–calmodulin-dependent protein kinase kinase 2) (from UniProt Q96RR4 1-588) (enzyme)”, for which the binding entry in test [2] is on record as “binds”.

As to “SUMO-CAV1-His fusion protein (from UniProt Q03135 1-178)”, in test [3], the binding entry is listed as “binds”.
